First the molecules themselves.
B1: il2ra_site1_3nfp_normal_mot_0eddeacbb14b769e73e254714f31e2f9_0001_af2_000000052_0001_37_51_H_._HHH_b2_04546_0001_0000800019_0000001_0 (protein)
chain: SSSSSDEEIREEVERLLEEAEKIEDTREASKVLEEAYRLARELGDFELADLIYEVARREISSSSS
B2: il2ra_site2_2erj_normal_mot_HHH_b1_02466_000000018_0001_22_38_H_._HHH_b2_04156_0002_0000700012_0000001_0 (protein)
chain: SSSSSSDLEELSEEIKEEFEEARSEEERHRLAWELLELVHKFGTRELIRLAKELIEILSSSSSSS
B3: il2ra_site2_2erj_sap_16_mot_HHH_b1_05944_000000221_0001_38_56_H_._HHH_b1_01483_af2_0001_0000700001_0000001_0_0001 (protein)
chain: SSSHELMEEAYKVANEASRLVAKNPEEAKEFVEEWIREAREKNDEFLEWLLRQVLELIKELSNSS
B4: il2ra_site1_2b5i_sap_10_mot_9e5b67f2fe50fe8120620fffc4d177d6_0001_af2_000000122_0001_1_12_H_._HHH_b2_06876_0001_0000100002_0000001_0_0001_af2pred_dldesign_0_af2 … (protein)
chain: SSSSSALREEIERLLEEARRLAAAGRPEEALRLLSRALYLAHALGDEEAIARIKALAEELESSSS
B5: il2ra_site2_2erj_sap_35_mot_8abaa092650c7ec0dcd26c08d75eddca_0001_1_000000049_0001_35_49_H_._HHH_b2_08271_af2_0001_0000200012_0000001_0_0001_af2pred_0001_af2pre … (protein)
chain: SDERLLELAAEKLAERAGVPDVSVEVHNGTLEVEFTGTTERLKEVLEALEFAAKAQGLEFESSSE
B6: il2ra_site1_3nfp_sap_7_mot_HHH_b2_04441_af2_000000141_0001_1_20_H_._HHH_b2_08321_0001_0000200005_0000001_0_0001_af2pred_0001_af2pred (protein)
chain: SSSSSSSELEELLREANELKKRGNPEEAKKVLEQAEKAAEERNNENARRVVEAMLRLLSSSSSSS
B7: il2ra_site1_2b5i_normal_mot_HHH_b1_06833_000000178_0001_1_19_H_._HHH_b1_07157_0001_0000200017_0000001_0 (protein)
chain: SSSSSEHIKYIVRVVLRLAHEYNLSLEQMRELARLAAELAQRGYSEEEIEEELREKAEQLGSSSS
B8: il2ra_site1_2b5i_normal_mot_HHH_b1_07881_af2_000000049_0001_1_19_H_._HHH_b1_08435_0001_0000200010_0000001_1_af2pred_dldesign_0_af2pred (protein)
chain: SSSSSDPEAEIDRLFNEALELKRQGKLEEAKKLLEEAIKLAKANGDEKAVAELEYFLSLLSSSSS
B9: il2ra_site2_2erj_sap_28_mot_HHH_b2_01204_af2_000000051_0001_19_34_H_._HHH_b2_05199_0001_0000300050_0000001_0_0001 (protein)
chain: SSSSTEELREIFELANALLEAIQNNDDELFREIYKEAEELIEKTNSENAEEHLRWLERHFNSSSS
B10: il2ra_site2_3nfp_normal_mot_HHH_b1_07095_000000265_0001_1_20_H_._HHH_b1_04266_af2_0001_0000200008_0000001_0 (protein)
chain: SSSSDEFRERVEELVEKAEELLERGNPEEARRVLARATALAYEGNDFEAFALVNELLEKLTSSSS
B11: il2ra_site1_3nfp_sap_13_mot_HHH_b2_04441_af2_000000141_0001_1_20_H_._HHH_b2_00593_0001_0000100008_0000001_0_0001_af2pred_0001_af2pred_swapped (protein)
chain: SSSSSEVTELLRRALEAAQNGNPEEAVELLEEAKRLAEELNDERILKLIEADLRVARRLLSSSSS
B12: il2ra_site1_3nfp_normal_mot_eb5a5eebac1e5153f932cc6c3f4b2787_0001_af2_000000065_0001_18_33_H_._HHH_b2_04044_0002_0000100009_0000001_0 (protein)
chain: SSSSSDEEIRERVEELLEEAKHIPDYREASRLVEEAYRLAAELGDPELSELIYRVMREIVSSSSS
B13: il2ra_site1_1z92_normal_mot_922575b2e9738a49cb663a995786872c_0001_af2_000000234_0001_18_32_H_._ae2d1c0b5552e85e62693402b9c72bf7_0001_af2_0001_0000300017_0000001 … (protein)
chain: NRDSREQIEEAIKKNDLELLKEILERSEEQSGDPRLAKQYLKIAIKRLLGDPEKAREIVERIEQR
B14: il2ra_site1_3nfp_sap_14_mot_HHH_b1_04197_000000021_0001_41_57_H_._HHH_b2_03447_af2_0001_0000300002_0000001_0_0001 (protein)
chain: DRAFRRAIELAQKQDEELAELLEEVVRLLKEEGDPRLLELLDEAMQLIAKGNPEEAKRVLEEALK
B15: il2ra_site2_2erj_normal_mot_6ec3e94b46d95805cdcdc10c0c108f03_0001_af2_000000040_0001_36_50_H_._HHH_b2_07873_af2_0001_0000300042_0000001_0 (protein)
chain: SSSSNEELKKLYELANRIMHALANGDEELFEELLQELKELAEKLDSENAKELAELLEEHGSSSSS
B16: il2ra_site1_3nfp_sap_12_mot_HHH_b2_05592_000000000_0001_42_56_H_._HEEHE_1033_0001_0000100003_0000001_0_0001_af2pred_0001_af2pred_1_swapped (protein)
chain: GKEEALELLKEAAERLNDPALRFIARALEEALKRDPELAKRILRRLVEITGDPVLEEVLELLESD
B17: il2ra_site1_1z92_normal_mot_HHH_b2_04342_af2_000000114_0001_23_39_H_._HHH_b2_01541_0001_0000100015_0000001_0 (protein)
chain: SSSSDEAVERLVEFLTRNAELAIEHGDERALKAALKIMKSLAKLHNDEELRKLIEELEEEGSSSS
B18: il2ra_site2_3nfp_sap_26_mot_ems_p1-15H-GBL-16H-GBL-14H_0089_0001_0001_0001_af2_000000072_0001_19_33_H_._HHH_b1_04644_0001_0000200032_0000001_0_0001 (protein)
chain: SSSSDKSEEYLRIALELIEEAIEDGNPEVARRLIETARAMAESHNDEEVLERLEELLEEISSSSS

This is one part of the list.

The test has as its target il2ra, P01589. The test is described as follows: yeast display titration.
Regarding B1, the “apparent Kd” value is “inactive: no binding seen”.

Regarding B2, the “apparent Kd” value is “inactive: no binding seen”.

In the case of B3, the “apparent Kd” value is “inactive: no binding seen”.

B4: the “apparent Kd” value is “inactive: no binding seen”.

Take B5: the “apparent Kd” value was “inactive: no binding seen”.

In the case of B6, the “apparent Kd” value is “inactive: no binding seen”.

As to B7, the “apparent Kd” value is “inactive: no binding seen”.

B8: the “apparent Kd” value is “inactive: no binding seen”.

Consider B9, for which the “apparent Kd” value is “inactive: no binding seen”.

As for B10, the “apparent Kd” value was “inactive: no binding seen”.

For B11, the “apparent Kd” value is “inactive: no binding seen”.

Turning to B12, the “apparent Kd” value was “inactive: no binding seen”.

For the molecule B13, the “apparent Kd” value is “inactive: no binding seen”.

Regarding B14, the “apparent Kd” value was “inactive: no binding seen”.

For B15, the “apparent Kd” value was “inactive: no binding seen”.

As to B16, the “apparent Kd” value was “inactive: no binding seen”.

For B17, the “apparent Kd” value was “inactive: no binding seen”.

For the molecule B18, the “apparent Kd” value was “inactive: no binding seen”.

Source of the values: publication PMC10163288.
